Patent publication US20130310313A1
No constants are given. Whether binding was seen depends on the method and setting. Some binding calls cover weakened binding; strength is not graded here.

Sequences of proteins named here, by UniProt entry; tags and fusion partners are left off. Residues count along the entry.
UniProt P06213, residues 28-1382: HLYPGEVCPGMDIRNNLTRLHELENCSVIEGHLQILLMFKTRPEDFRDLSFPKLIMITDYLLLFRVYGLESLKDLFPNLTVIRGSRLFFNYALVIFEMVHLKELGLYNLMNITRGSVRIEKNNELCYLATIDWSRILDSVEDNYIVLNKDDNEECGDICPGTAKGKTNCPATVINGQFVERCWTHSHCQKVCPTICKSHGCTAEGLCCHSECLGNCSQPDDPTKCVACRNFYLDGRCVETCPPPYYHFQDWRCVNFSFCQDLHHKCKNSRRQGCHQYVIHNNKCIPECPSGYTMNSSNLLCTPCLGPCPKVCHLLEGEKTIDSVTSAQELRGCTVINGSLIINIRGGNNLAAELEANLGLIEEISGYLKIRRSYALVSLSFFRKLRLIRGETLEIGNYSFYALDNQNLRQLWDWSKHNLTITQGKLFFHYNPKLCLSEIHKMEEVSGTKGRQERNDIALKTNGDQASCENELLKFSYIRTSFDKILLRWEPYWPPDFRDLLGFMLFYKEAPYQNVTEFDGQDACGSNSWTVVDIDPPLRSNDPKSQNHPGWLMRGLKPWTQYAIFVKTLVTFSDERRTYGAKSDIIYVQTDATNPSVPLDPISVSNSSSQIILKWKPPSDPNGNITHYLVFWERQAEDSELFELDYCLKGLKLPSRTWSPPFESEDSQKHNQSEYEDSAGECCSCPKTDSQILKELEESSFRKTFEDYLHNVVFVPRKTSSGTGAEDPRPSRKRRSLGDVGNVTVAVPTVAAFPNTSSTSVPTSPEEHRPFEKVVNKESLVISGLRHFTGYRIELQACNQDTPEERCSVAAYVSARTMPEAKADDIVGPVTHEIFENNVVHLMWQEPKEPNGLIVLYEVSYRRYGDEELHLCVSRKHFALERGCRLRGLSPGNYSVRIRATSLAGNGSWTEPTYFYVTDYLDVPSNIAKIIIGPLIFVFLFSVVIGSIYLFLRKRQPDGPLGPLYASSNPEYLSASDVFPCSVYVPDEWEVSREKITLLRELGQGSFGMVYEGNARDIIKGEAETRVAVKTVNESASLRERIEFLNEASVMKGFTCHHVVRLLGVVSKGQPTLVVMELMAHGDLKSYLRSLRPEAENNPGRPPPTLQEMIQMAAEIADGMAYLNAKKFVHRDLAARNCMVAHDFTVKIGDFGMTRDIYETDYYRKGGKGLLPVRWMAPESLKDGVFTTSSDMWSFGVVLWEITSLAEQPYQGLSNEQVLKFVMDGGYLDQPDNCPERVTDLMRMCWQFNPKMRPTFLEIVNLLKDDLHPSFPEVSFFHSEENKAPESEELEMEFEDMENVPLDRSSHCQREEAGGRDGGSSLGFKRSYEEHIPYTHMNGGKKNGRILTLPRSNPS

B1: IRBP-1-68 polypeptide (SEQ ID NO:1) (peptide)
chain: SRCQGKSSWPQLVGSTGAAAKAVIERENPRVRAVIIKVGSGATKDFRCDRVRVWVTERGIVARPPTIG
B2: IRBP-1-19 (SEQ ID NO:2) (peptide)
peptide: SRCQGKSSWPGLVGSTGAA
B3: IRBP-50-68 (SEQ ID NO:6) (peptide)
peptide: RVRVWVTERGIVARPPTIG
B4: IRBP-60-68 (SEQ ID NO:7) (peptide)
peptide: IVARPPTIG
B5: IRBP-MC (SEQ ID NO:21) (peptide)
peptide: IVARPPAIG

Key:
[1] = molecular target: insulin receptor on human lymphocyte cells (IM-9) (human) (UniProt P06213); assay: insulin receptor autophosphorylation in IM-9 cells, taken by the filing as a sign of binding
[2] = molecular target: insulin receptor on human lymphocyte cells (IM-9) (human) (UniProt P06213); assay: whole cell receptor binding assay on IM-9 cells with 125I-insulin

Binder | binding [1] | binding [2]
B1 | binds | binds
B2 |  | binds
B3 |  | binds
B4 |  | binds
B5 |  | binds
